Experimental data: PubChem BioAssay AID1224828 (NIAID, 2016)
In all, the deposit lists about 17,000 reagents; below is a part drawn at random. 762 of all reagents (4.5%) were called active. 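Active calls include both raised and lowered p65 entry, mostly lowered; wells with fewer than 50 cells lack a z-score.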 Raw values are not corrected between plates. Entries without a mark were called inactive. No sequences are given here.

Aim: 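Find genes required for NF-kappaB p65 moving into the nucleus after LPS in mouse macrophages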 (primary screen)
System: mouse RAW264.7 G9 macrophage reporter cells (GFP-p65, Tnf promoter-mCherry)
Reagents: siRNA pool against mouse genes, 100 nM
Timing: 2 days siRNA transfection, then 40 min LPS before fixation
Challenge: LPS (Salmonella minnesota R595) at 10 ng/ml
Detection: 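Microscopy ratio of nuclear to perinuclear-ring GFP-p65 signal, scaled to the plate median; gene score is the average of two replicate robust z-scores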
Direction: p65 translocation robust z-score: higher = more nuclear NF-kappaB p65 after LPS than the plate median; nuclear/cytoplasmic p65 ratio: higher = more nuclear NF-kappaB p65
Active means: 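Called active when z exceeds 3.3 or falls under -1.56 (median of Tlr4 controls), giving activity score of at least 50; no calls for control wells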
Calls: active = hit (p65 shift raised or lowered); inactive = no clear change

{"Target gene":"Gbp5 (guanylate binding protein 5)","p65 translocation robust z-score":"-1.82 (active)","nuclear/cytoplasmic p65 ratio, rep 1":1.37,"nuclear/cytoplasmic p65 ratio, rep 2":1.17,"low cell count flag":"enough cells to score"}
{"Target gene":"Mindy4 (MINDY lysine 48 deubiquitinase 4)","p65 translocation robust z-score":0.64,"nuclear/cytoplasmic p65 ratio, rep 1":1.63,"nuclear/cytoplasmic p65 ratio, rep 2":1.49,"low cell count flag":"enough cells to score"}
{"Target gene":"Cklf (chemokine-like factor)","p65 translocation robust z-score":0.34,"nuclear/cytoplasmic p65 ratio, rep 1":1.61,"nuclear/cytoplasmic p65 ratio, rep 2":1.71,"low cell count flag":"enough cells to score"}
{"Target gene":"Cog2 (component of oligomeric golgi complex 2)","p65 translocation robust z-score":0.02,"nuclear/cytoplasmic p65 ratio, rep 1":1.54,"nuclear/cytoplasmic p65 ratio, rep 2":1.85,"low cell count flag":"enough cells to score"}
{"Target gene":"Edem1 (ER degradation enhancer, mannosidase alpha-like 1)","p65 translocation robust z-score":0.69,"nuclear/cytoplasmic p65 ratio, rep 1":1.65,"nuclear/cytoplasmic p65 ratio, rep 2":1.38,"low cell count flag":"enough cells to score"}
{"Target gene":"Med7 (mediator complex subunit 7)","p65 translocation robust z-score":0.21,"nuclear/cytoplasmic p65 ratio, rep 1":1.64,"nuclear/cytoplasmic p65 ratio, rep 2":1.29,"low cell count flag":"enough cells to score"}
{"Target gene":"Gjd2 (gap junction protein, delta 2)","p65 translocation robust z-score":-0.06,"nuclear/cytoplasmic p65 ratio, rep 1":1.57,"nuclear/cytoplasmic p65 ratio, rep 2":1.47,"low cell count flag":"enough cells to score"}
{"Target gene":"Kansl1l (KAT8 regulatory NSL complex subunit 1-like)","p65 translocation robust z-score":-0.24,"nuclear/cytoplasmic p65 ratio, rep 1":1.34,"nuclear/cytoplasmic p65 ratio, rep 2":1.55,"low cell count flag":"enough cells to score"}
{"Target gene":"Arfip2 (ARF interacting protein 2)","p65 translocation robust z-score":-0.47,"nuclear/cytoplasmic p65 ratio, rep 1":1.51,"nuclear/cytoplasmic p65 ratio, rep 2":1.59,"low cell count flag":"enough cells to score"}
{"Target gene":"Cdh22 (cadherin 22)","p65 translocation robust z-score":1.82,"nuclear/cytoplasmic p65 ratio, rep 1":1.84,"nuclear/cytoplasmic p65 ratio, rep 2":2.11,"low cell count flag":"enough cells to score"}
{"Target gene":"Pcdh7 (protocadherin 7)","p65 translocation robust z-score":-0.95,"nuclear/cytoplasmic p65 ratio, rep 1":1.36,"nuclear/cytoplasmic p65 ratio, rep 2":1.25,"low cell count flag":"enough cells to score"}
{"Target gene":"Cbfa2t2 (CBFA2/RUNX1 translocation partner 2)","p65 translocation robust z-score":-1.04,"nuclear/cytoplasmic p65 ratio, rep 1":1.3,"nuclear/cytoplasmic p65 ratio, rep 2":1.27,"low cell count flag":"enough cells to score"}

2 entries from above, sorted by “nuclear/cytoplasmic p65 ratio, rep 1”, descending:
{"Target gene":"Med7 (mediator complex subunit 7)","p65 translocation robust z-score":0.21,"nuclear/cytoplasmic p65 ratio, rep 1":1.64,"nuclear/cytoplasmic p65 ratio, rep 2":1.29,"low cell count flag":"enough cells to score"}
{"Target gene":"Gjd2 (gap junction protein, delta 2)","p65 translocation robust z-score":-0.06,"nuclear/cytoplasmic p65 ratio, rep 1":1.57,"nuclear/cytoplasmic p65 ratio, rep 2":1.47,"low cell count flag":"enough cells to score"}

The list goes on.
{"Target gene":"Or5w16 (olfactory receptor family 5 subfamily W member 16)","p65 translocation robust z-score":-0.26,"nuclear/cytoplasmic p65 ratio, rep 1":1.64,"nuclear/cytoplasmic p65 ratio, rep 2":1.52,"low cell count flag":"enough cells to score"}
{"Target gene":"Fam220a (family with sequence similarity 220, member A)","nuclear/cytoplasmic p65 ratio, rep 1":1.13,"nuclear/cytoplasmic p65 ratio, rep 2":1.21,"low cell count flag":"fewer than 50 cells per well; well left out of scoring"}
{"Target gene":"Skp1 (S-phase kinase-associated protein 1)","p65 translocation robust z-score":-1.47,"nuclear/cytoplasmic p65 ratio, rep 1":1.35,"nuclear/cytoplasmic p65 ratio, rep 2":1.33,"low cell count flag":"enough cells to score"}
{"Target gene":"Col3a1 (collagen, type III, alpha 1)","p65 translocation robust z-score":0.3,"nuclear/cytoplasmic p65 ratio, rep 1":1.53,"nuclear/cytoplasmic p65 ratio, rep 2":1.4,"low cell count flag":"enough cells to score"}
{"Target gene":"Psd4 (pleckstrin and Sec7 domain containing 4)","p65 translocation robust z-score":0.68,"nuclear/cytoplasmic p65 ratio, rep 1":1.66,"nuclear/cytoplasmic p65 ratio, rep 2":1.77,"low cell count flag":"enough cells to score"}
{"Target gene":"Fancm (Fanconi anemia, complementation group M)","p65 translocation robust z-score":0.49,"nuclear/cytoplasmic p65 ratio, rep 1":1.74,"nuclear/cytoplasmic p65 ratio, rep 2":1.69,"low cell count flag":"enough cells to score"}
{"Target gene":"Colec10 (collectin sub-family member 10)","p65 translocation robust z-score":-0.14,"nuclear/cytoplasmic p65 ratio, rep 1":1.74,"nuclear/cytoplasmic p65 ratio, rep 2":1.49,"low cell count flag":"enough cells to score"}
{"Target gene":"Add2 (adducin 2)","p65 translocation robust z-score":-1.25,"nuclear/cytoplasmic p65 ratio, rep 1":1.42,"nuclear/cytoplasmic p65 ratio, rep 2":1.44,"low cell count flag":"enough cells to score"}
{"Target gene":"Dmc1 (DNA meiotic recombinase 1)","nuclear/cytoplasmic p65 ratio, rep 1":1.51,"nuclear/cytoplasmic p65 ratio, rep 2":1.21,"low cell count flag":"fewer than 50 cells per well; well left out of scoring"}
